Laboratory results: publication PMC5964324
These are yes or no findings as the source states them, for the method shown. For part of these data: In cells and extracts the contact can be indirect. Some results given as binding are weak or reduced against the parent protein; the word gives no strength. Where a sequence is shown, tags or fusion partners need not be part of it.

Sequences of proteins named here, by UniProt entry; tags and fusion partners are left off. A change or cut given only in a name is not applied to a line headed by its entry. Residues count along the entry.
UniProt P54578: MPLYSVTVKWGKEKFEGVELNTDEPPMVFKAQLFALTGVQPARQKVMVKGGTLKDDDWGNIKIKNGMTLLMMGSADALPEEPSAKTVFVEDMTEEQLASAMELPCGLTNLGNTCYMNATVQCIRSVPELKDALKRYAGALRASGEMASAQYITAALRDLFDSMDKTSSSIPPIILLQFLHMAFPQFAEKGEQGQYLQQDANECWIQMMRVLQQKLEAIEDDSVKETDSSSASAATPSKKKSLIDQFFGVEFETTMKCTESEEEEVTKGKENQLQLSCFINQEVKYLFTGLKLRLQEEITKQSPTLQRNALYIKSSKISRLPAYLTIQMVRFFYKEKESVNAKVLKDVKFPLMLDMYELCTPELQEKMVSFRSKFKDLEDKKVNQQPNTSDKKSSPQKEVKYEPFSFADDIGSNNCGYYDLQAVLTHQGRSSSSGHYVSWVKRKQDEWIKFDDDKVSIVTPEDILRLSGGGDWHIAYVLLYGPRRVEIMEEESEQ
GST-USP: residues 105-483 of P54578
UniProt Q13200: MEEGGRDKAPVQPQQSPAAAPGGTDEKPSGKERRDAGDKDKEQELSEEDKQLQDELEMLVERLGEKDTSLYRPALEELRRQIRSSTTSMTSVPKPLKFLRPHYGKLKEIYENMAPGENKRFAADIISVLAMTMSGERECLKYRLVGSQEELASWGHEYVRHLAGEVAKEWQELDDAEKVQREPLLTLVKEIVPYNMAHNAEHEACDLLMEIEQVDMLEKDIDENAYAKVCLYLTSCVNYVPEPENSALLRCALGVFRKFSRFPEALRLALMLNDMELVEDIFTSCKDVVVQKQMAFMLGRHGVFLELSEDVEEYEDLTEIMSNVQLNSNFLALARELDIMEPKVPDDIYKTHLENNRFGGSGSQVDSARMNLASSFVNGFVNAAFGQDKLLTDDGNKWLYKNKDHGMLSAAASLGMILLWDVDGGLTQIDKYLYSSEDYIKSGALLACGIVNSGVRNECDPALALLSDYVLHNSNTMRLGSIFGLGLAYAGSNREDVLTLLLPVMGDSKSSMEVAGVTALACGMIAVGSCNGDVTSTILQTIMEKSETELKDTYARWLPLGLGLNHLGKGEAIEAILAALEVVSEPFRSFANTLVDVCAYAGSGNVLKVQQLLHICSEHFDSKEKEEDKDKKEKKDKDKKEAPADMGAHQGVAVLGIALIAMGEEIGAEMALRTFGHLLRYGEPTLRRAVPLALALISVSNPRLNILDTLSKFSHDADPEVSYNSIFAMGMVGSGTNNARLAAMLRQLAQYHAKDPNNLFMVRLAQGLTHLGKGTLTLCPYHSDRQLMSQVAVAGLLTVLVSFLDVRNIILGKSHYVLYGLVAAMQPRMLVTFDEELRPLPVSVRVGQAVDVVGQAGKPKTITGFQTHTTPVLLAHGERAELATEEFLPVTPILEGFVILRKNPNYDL

B1: Flag-TRIM11 (protein, UniProt Q96F44 1-468)
chain: MAAPDLSTNLQEEATCAICLDYFTDPVMTDCGHNFCRECIRRCWGQPEGPYACPECRELSPQRNLRPNRPLAKMAEMARRLHPPSPVPQGVCPAHREPLAAFCGDELRLLCAACERSGEHWAHRVRPLQDAAEDLKAKLEKSLEHLRKQMQDALLFQAQADETCVLWQKMVESQRQNVLGEFERLRRLLAEEEQQLLQRLEEEELEVLPRLREGAAHLGQQSAHLAELIAELEGRCQLPALGLLQDIKDALRRVQDVKLQPPEVVPMELRTVCRVPGLVETLRRFRGDVTLDPDTANPELILSEDRRSVQRGDLRQALPDSPERFDPGPCVLGQERFTSGRHYWEVEVGDRTSWALGVCRENVNRKEKGELSAGNGFWILVFLGSYYNSSERALAPLRDPPRRVGIFLDYEAGHLSFYSATDGSLLFIFPEIPFSGTLRPLFSPLSSSPTPMTICRPKGGSGDTLAPQ

What was measured:
Flag-TRIM11 = target: T1, Flag-TRIM11 (UniProt Q96F44); assay: co-IP; cells lysed in NP-40 lysis buffer; anti-Flag (M2) or anti-HA agarose beads, or antibodies against endogenous proteins with Protein A/G agarose, 4 °C, 4 h; western blot; some panels in control and TRIM11-overexpressing or TRIM28-knockdown HCT116 cells
T1 sequence: B1 chain

GST-USP (human) = GST-USP (human) (UniProt P54578); assay: pull-down; in vitro; purified USP14 or Flag-TRIM11 incubated with GST proteins bound to glutathione beads (1 or 2 μg each protein), 4 °C, 4 h; washed four times with NP-40 lysis buffer; western blot; both purified
[1] = target: endogenous USP14 (ubiquitin-specific protease 14) (human (endogenous in HCT116)) (UniProt P54578); assay: co-IP; cells lysed in NP-40 lysis buffer; anti-Flag (M2) or anti-HA agarose beads, or antibodies against endogenous proteins with Protein A/G agarose, 4 °C, 4 h; western blot; some panels in control and TRIM11-overexpressing or TRIM28-knockdown HCT116 cells

Molecule | binding (Flag-TRIM11) | binding (GST-USP (human)) | binding [1]
endogenous PSMD2 (from UniProt Q13200 1-908) | binds | – | –
B1 | – | no binding | binds
